No constants are given. Whether binding was seen depends on the method and setting. Binding seen in cells or lysates may run through a third protein. Here binding means that the protein was enriched with, or labelled near, the bait; the list need not be complete.
Molecular target: DNAAF9 (endogenous, human airway epithelial cells) (human (endogenous in HAECs)) (UniProt Q5TEA3)
Experiment: affinity purification with mass spectrometry; endogenous DNAAF9 immunoprecipitated from HAEC whole-cell lysates at ALI day 19 (ECs) and day 45 (MCs), anti-DNAAF9 against isotype-matched IgG, protein A/G beads, TMT labeling and MS

By UniProt entry, the sequences of proteins in these tests, tags left out.
UniProt Q5TEA3: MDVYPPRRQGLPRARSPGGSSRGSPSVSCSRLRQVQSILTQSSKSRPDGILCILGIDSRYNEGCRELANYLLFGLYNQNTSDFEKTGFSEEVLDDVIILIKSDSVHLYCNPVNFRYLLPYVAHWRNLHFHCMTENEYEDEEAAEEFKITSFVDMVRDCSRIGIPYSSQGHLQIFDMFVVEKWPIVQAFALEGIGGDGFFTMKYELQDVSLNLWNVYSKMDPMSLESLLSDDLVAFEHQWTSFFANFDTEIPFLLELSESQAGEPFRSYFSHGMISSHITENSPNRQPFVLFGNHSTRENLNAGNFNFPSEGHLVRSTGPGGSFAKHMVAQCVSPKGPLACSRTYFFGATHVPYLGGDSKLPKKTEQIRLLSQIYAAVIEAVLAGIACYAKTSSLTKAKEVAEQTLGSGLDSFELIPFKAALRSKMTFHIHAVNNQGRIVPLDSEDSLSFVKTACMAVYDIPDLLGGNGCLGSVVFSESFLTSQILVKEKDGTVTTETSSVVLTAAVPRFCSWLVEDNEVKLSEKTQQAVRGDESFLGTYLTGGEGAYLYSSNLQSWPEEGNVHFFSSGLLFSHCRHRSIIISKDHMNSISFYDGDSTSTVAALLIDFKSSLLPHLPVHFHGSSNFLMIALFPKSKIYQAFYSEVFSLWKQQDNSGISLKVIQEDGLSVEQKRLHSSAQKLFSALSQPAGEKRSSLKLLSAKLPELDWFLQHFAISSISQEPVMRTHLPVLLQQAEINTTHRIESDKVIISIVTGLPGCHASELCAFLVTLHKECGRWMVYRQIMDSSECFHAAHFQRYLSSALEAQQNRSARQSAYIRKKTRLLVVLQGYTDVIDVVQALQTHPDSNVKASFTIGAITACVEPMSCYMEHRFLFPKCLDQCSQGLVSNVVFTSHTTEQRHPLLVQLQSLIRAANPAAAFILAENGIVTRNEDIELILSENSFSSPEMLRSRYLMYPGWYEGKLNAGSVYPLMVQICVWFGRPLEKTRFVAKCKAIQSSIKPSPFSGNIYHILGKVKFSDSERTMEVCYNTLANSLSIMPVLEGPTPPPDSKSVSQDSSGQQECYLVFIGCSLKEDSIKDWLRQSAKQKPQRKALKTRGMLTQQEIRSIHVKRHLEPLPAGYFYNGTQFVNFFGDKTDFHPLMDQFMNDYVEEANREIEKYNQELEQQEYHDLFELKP
UniProt P36405: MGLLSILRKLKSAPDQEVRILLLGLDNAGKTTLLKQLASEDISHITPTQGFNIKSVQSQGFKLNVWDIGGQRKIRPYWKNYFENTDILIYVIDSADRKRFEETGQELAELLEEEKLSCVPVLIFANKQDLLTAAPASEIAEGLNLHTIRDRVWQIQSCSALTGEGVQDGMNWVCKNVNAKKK
UniProt Q14204: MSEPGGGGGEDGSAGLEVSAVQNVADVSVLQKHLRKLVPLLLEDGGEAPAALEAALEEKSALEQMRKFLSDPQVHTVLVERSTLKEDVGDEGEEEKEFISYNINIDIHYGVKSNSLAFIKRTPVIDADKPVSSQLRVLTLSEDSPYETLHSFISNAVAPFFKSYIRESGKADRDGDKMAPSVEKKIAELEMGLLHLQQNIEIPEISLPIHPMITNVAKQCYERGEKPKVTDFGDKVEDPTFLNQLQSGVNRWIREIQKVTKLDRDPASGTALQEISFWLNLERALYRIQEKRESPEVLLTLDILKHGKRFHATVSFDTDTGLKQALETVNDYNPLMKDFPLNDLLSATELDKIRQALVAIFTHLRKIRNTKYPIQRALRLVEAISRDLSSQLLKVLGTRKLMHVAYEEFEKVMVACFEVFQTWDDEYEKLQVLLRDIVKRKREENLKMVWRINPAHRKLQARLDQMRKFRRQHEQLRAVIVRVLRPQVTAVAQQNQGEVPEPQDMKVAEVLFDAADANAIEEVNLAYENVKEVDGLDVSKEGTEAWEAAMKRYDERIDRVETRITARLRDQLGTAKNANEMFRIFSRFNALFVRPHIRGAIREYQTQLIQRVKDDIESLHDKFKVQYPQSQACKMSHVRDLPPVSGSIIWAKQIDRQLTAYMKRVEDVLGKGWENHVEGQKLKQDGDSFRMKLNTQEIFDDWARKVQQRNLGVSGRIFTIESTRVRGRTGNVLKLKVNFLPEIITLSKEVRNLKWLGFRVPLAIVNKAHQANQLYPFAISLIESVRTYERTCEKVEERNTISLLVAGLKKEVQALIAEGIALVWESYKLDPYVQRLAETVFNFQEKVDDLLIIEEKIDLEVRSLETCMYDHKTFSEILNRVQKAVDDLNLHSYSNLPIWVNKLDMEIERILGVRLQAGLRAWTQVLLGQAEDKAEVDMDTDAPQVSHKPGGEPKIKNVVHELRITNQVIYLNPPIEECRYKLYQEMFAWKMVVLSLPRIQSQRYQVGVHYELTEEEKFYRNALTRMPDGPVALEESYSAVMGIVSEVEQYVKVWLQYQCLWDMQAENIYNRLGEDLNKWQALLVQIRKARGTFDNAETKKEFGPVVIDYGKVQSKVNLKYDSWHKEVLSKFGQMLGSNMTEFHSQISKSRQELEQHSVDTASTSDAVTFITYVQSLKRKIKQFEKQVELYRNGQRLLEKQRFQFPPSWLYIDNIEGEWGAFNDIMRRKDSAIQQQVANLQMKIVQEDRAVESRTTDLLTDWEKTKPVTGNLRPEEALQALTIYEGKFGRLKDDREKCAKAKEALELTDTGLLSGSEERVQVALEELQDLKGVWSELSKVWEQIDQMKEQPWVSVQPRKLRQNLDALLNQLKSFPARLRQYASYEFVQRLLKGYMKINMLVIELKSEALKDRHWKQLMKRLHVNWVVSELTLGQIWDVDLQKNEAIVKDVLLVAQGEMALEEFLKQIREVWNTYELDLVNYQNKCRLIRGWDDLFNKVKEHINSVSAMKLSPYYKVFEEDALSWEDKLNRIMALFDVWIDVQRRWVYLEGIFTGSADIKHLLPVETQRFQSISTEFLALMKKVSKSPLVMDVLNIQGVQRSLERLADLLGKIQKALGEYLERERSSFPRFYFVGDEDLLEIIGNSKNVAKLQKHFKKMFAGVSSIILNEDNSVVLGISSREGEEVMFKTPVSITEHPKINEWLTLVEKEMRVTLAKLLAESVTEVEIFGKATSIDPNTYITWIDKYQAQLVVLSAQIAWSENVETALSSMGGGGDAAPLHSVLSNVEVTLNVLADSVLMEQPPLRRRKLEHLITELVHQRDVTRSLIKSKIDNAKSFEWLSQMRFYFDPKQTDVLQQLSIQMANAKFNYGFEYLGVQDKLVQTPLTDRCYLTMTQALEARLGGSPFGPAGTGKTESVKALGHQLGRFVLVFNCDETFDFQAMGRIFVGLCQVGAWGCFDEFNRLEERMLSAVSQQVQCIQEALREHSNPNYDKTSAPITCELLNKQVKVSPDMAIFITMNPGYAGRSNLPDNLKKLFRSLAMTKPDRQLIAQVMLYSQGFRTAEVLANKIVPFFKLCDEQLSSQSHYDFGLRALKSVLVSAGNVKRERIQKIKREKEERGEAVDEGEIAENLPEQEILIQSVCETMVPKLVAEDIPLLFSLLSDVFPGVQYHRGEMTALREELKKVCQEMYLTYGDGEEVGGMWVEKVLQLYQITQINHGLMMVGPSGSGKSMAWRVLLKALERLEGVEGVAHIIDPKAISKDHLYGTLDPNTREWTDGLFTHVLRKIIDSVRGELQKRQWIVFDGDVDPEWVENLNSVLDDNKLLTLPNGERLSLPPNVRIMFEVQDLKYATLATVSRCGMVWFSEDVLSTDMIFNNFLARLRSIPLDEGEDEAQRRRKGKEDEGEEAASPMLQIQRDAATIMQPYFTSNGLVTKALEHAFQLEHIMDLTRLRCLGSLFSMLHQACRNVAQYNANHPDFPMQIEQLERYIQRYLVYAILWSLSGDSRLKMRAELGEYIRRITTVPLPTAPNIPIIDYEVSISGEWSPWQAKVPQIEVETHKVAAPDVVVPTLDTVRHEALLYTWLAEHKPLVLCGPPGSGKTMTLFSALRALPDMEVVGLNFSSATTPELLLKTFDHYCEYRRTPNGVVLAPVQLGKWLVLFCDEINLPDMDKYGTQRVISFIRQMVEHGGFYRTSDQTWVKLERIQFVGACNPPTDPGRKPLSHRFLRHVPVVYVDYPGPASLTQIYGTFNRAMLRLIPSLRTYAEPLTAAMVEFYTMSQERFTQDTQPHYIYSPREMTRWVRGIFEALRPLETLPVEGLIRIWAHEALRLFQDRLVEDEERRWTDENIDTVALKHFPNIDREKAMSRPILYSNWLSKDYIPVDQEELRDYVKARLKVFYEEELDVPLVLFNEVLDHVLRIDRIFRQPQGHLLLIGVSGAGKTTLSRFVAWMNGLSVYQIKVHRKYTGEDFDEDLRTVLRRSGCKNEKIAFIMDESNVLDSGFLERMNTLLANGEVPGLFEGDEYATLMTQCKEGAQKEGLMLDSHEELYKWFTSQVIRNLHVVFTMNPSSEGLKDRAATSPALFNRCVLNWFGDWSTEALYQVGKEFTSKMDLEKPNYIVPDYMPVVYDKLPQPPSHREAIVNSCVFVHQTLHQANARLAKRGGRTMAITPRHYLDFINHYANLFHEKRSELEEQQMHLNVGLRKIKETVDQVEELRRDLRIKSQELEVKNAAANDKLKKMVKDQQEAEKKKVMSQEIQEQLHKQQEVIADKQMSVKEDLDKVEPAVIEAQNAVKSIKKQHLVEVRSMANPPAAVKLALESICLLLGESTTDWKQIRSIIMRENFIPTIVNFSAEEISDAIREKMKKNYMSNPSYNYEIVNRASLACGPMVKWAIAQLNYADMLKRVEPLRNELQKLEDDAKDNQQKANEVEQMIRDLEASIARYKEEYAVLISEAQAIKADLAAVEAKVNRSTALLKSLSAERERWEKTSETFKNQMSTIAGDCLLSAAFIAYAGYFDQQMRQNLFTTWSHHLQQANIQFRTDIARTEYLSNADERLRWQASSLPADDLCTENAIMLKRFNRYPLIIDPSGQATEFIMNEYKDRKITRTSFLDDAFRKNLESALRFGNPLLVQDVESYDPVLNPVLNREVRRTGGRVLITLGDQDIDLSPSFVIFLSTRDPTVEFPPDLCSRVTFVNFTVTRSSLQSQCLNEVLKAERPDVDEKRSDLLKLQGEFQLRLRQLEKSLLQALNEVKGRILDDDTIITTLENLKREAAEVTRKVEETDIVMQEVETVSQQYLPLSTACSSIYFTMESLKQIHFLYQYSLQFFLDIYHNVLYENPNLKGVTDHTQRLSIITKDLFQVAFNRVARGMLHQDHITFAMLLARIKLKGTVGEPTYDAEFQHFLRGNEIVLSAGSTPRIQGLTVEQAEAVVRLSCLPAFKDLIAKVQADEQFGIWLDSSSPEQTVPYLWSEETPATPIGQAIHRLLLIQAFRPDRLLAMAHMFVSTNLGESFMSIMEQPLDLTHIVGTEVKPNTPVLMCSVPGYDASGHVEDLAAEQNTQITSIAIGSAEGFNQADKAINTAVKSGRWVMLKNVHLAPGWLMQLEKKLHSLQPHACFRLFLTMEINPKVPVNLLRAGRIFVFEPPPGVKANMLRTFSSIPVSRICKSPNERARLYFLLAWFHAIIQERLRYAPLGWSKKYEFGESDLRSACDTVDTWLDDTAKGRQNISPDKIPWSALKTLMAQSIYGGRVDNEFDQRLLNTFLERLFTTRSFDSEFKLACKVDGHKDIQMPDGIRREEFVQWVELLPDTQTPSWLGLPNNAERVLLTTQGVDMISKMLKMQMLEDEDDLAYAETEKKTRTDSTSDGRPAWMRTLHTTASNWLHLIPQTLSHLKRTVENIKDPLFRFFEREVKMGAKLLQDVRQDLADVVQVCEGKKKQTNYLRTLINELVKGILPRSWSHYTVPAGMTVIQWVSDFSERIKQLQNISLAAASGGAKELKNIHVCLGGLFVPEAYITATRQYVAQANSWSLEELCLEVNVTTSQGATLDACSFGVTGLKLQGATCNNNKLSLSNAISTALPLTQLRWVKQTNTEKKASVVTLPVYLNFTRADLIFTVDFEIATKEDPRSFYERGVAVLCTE
UniProt O43237: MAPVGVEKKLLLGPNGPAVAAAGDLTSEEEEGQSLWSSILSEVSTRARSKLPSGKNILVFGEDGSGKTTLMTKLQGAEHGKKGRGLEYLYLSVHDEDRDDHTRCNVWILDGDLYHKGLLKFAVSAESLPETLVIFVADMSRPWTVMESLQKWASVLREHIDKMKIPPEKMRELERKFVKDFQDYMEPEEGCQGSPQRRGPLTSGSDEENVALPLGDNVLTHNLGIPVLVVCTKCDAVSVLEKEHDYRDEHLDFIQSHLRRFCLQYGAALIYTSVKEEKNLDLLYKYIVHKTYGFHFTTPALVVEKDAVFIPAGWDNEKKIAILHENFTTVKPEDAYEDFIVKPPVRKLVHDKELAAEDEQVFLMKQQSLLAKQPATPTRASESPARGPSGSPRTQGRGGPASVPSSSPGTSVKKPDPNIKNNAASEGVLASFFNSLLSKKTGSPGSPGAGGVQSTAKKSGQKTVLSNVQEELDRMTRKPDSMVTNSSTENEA

Row | binding | Substance
1 | binds | CAV1 (from UniProt Q03135 1-178)
2 | binds | DNAH5 (from UniProt Q8TE73 1-4624)
3 | binds | DYNC1I2 (from UniProt Q13409 1-638)

Further lines, the substance ahead of its results:

Row | Substance | binding
4 | ARL3 (endogenous, human airway epithelial cells) (from UniProt P36405 1-182) | binds
5 | DCTN2 (from UniProt Q13561 1-401) | binds
6 | DYNC1H1 (from UniProt Q14204 1-4646) | binds
7 | DYNC1LI2 (from UniProt O43237 1-492) | binds
